PubChem BioAssay AID743121 | NCATS, 2013

Purpose: 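Genes whose silencing strengthens cell killing by camptothecin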 (primary screen)
System: MDA-MB-231 cells, a human breast cancer line
Knock-down reagent: single siRNA against human genes, 20 nM siRNA (0.8 pmol per well)
Duration: 120 h (drug added 48 h after transfection, read 72 h later)
Conditions: camptothecin 20 nM (about EC30) for 72 h; vehicle 0.1% DMSO in parallel plates
Measurement: 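CellTiter-Glo ATP signal, scaled to control siRNA as percent viability; sensitisation given as log2 of untreated divided by camptothecin-treated viability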
Scale: log2 vehicle/camptothecin viability: higher = stronger sensitisation to camptothecin; viability with camptothecin and viability without drug: higher = more viable cells
Call rule: 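Active genes have an RSA gene-level p-value below 0.001, computed from the ratios of their separate siRNAs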
In all, the deposit lists about 26,000 reagents; this is an unselected part. Over the whole deposit, 167 (0.63%) got an active call. 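Calls are per gene from RSA p-values that are not deposited; an individual active-marked siRNA can sensitise only weakly.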 The numbers tell different reagents against one gene apart. No sequences are given here.

Target gene | reagent no. | log2 vehicle/camptothecin viability | viability with camptothecin (% of control) | viability without drug (% of control) | Call
JAKMIP1 | 1 | -0.0996 | 86.3 | 80.6 | inactive
JAKMIP1 | 2 | 0.336 | 42.3 | 53.4 | inactive
JAKMIP1 | 3 | -0.35 | 96.1 | 75.4 | inactive
JAKMIP1 | 4 | -0.735 | 53.4 | 32.1 | inactive
JAKMIP1 | 5 | -0.372 | 80.3 | 62 | inactive
E2F1 | 1 | -0.422 | 64.7 | 48.3 | inactive
E2F1 | 2 | -0.292 | 80 | 65.3 | inactive
E2F1 | 3 | -3.73 | 84 | 6.34 | inactive
E2F1 | 4 | -0.519 | 41.9 | 29.3 | inactive
CLCN2 | 1 | -0.154 | 74.6 | 67.1 | inactive
CLCN2 | 2 | -0.0654 | 59 | 56.4 | inactive
CLCN2 | 3 | -0.38 | 37.4 | 28.7 | inactive
CLCN2 | 4 | 0.0291 | 94.3 | 96.3 | inactive
DAB2 | 1 | -0.0625 | 70.2 | 67.3 | inactive
DAB2 | 2 | 0.0207 | 94.1 | 95.4 | inactive
DAB2 | 3 | -0.107 | 94.5 | 87.7 | inactive
CFH | 1 | -0.611 | 62.2 | 40.7 | inactive
CFH | 2 | -0.0624 | 89.5 | 85.7 | inactive
CFH | 3 | -0.496 | 114 | 80.8 | inactive
CFH | 4 | -0.403 | 99.9 | 75.6 | inactive
MAMDC4 | 1 | -0.489 | 71.9 | 51.3 | inactive
MAMDC4 | 2 | -0.529 | 101 | 70.2 | inactive
MAMDC4 | 3 | -0.0766 | 97.2 | 92.2 | inactive
MAMDC4 | 4 | -0.388 | 67.6 | 51.7 | inactive
NEFL | 1 | -0.192 | 48.5 | 42.5 | inactive
NEFL | 2 | -0.048 | 92 | 89 | inactive
NEFL | 3 | -0.251 | 113 | 95 | inactive
NEFL | 4 | -0.376 | 86.6 | 66.7 | inactive
RIOK2 | 1 | -0.706 | 109 | 66.8 | inactive
RIOK2 | 2 | -0.345 | 60.8 | 47.9 | inactive
RIOK2 | 3 | -0.385 | 70.3 | 53.8 | inactive
RIOK2 | 4 | -0.547 | 106 | 72.3 | inactive
IL3 | 1 | 0.218 | 74.2 | 86.4 | inactive
IL3 | 2 | 0.0539 | 59.7 | 61.9 | inactive
IL3 | 3 | -0.368 | 107 | 82.9 | inactive
BTN2A3P | 1 | 0.232 | 78.6 | 92.3 | inactive
BTN2A3P | 2 | -0.259 | 75.8 | 63.4 | inactive
BTN2A3P | 3 | 0.0613 | 86.7 | 90.5 | inactive
BTN2A3P | 4 | -0.0948 | 94.3 | 88.3 | inactive
MCCC1 | 1 | -0.288 | 41 | 33.6 | inactive
MCCC1 | 2 | -0.474 | 95 | 68.4 | inactive
MCCC1 | 3 | -0.463 | 60.2 | 43.7 | inactive
MCCC1 | 4 | 0.246 | 95.7 | 113 | inactive
VDAC3 | 1 | -0.243 | 114 | 96.5 | inactive
VDAC3 | 2 | -0.0792 | 11.1 | 10.5 | inactive
VDAC3 | 3 | -0.387 | 46.5 | 35.6 | inactive
VDAC3 | 4 | -0.36 | 72.4 | 56.4 | inactive
EFNB2 | 1 | 0.0287 | 86 | 87.7 | inactive
EFNB2 | 2 | -0.418 | 102 | 76.2 | inactive
EFNB2 | 3 | -0.0968 | 67.4 | 63 | inactive
EFNB2 | 4 | 0.0103 | 96.7 | 97.4 | inactive
PPT1 | 1 | -0.369 | 76.4 | 59.1 | inactive
PPT1 | 2 | 0.0334 | 88.9 | 91 | inactive
PPT1 | 3 | -0.0929 | 106 | 99.3 | inactive
PPT1 | 4 | -0.211 | 59.3 | 51.2 | inactive
GHRHR | 1 | -0.217 | 68.5 | 59 | inactive
GHRHR | 2 | -0.286 | 116 | 95.4 | inactive
GHRHR | 3 | -0.233 | 37 | 31.5 | inactive
GHRHR | 4 | 0.579 | 20.3 | 30.4 | inactive
TMUB2 | 1 | -0.346 | 109 | 85.7 | inactive
TMUB2 | 2 | -0.193 | 102 | 89.7 | inactive
TMUB2 | 3 | 0.101 | 76.2 | 81.8 | inactive
TMUB2 | 4 | -0.0626 | 95 | 91 | inactive
HRH2 | 1 | -0.496 | 65.7 | 46.6 | inactive
HRH2 | 2 | -0.0226 | 97.7 | 96.2 | inactive
HRH2 | 3 | -0.317 | 44 | 35.3 | inactive
HRH2 | 4 | -0.228 | 116 | 99.3 | inactive
GPR176 | 1 | -0.322 | 87 | 69.6 | inactive
GPR176 | 2 | -0.341 | 76.3 | 60.3 | inactive
GPR176 | 3 | -0.454 | 63.1 | 46.1 | inactive
GPR176 | 4 | -0.217 | 74.3 | 63.9 | inactive

Single entries from above:
BTN2A3P #2, log2 vehicle/camptothecin viability: -0.259
Value of PPT1 #3 in “viability with camptothecin (% of control)”: 106
For “Call”, MAMDC4 #3 shows inactive
Under “Call”, GPR176 #2 shows inactive
IL3 #2, viability without drug (% of control) → 61.9
CFH #2, Call → inactive
